{"source": "PubChem BioAssay AID587", "about": "(National Center for Advancing Translational Sciences (NCATS), 2007)", "note": "Screen size: about 59,000 compounds; about 35 (0.06%) were called active. The shares of active, inactive and inconclusive entries below differ from those in the screen. Cut-off read from the data, not from the text of the source: active = max dye-equivalent concentration above about 10 nM; inconclusive = between about 1.1 nM and that limit; inactive = weaker than that."}
{"assay": "qHTS Assay for Spectroscopic Profiling in Texas Red Spectral Region", "conditions": "Compound fluorescence, Texas Red channel, 547/618 nm; hits give high values", "in_short": "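Dye-equivalent concentrations come from scaling compound signal (ex 547, em 618 nm) to six Texas Red standard concentrations run on every plate, after 15 min room-temperature incubation in pH 8.0 Tris (100 mM).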"}
{"smiles": "Cc1oc(-c2ccc(Cl)cc2)nc1CS(=O)CC(=O)NCCCN(C)C1CCCCC1", "note": "(stereo not given)", "max dye-equivalent concentration": "inconclusive: 1.6 nM"}
{"smiles": "NC(=O)C1CCN(C(=O)CN2C(=O)c3ccccc3S2(=O)=O)CC1", "max dye-equivalent concentration": "inconclusive: 1.1 nM"}
{"smiles": "CC(C)c1ccc(/C(C(=O)O)=C(\\O)C(=O)O)cc1", "max dye-equivalent concentration": "inactive"}
{"smiles": "CCC(C)(C)n1nnnc1C(c1cccc(C#N)c1)N1CCN(c2cccc(C)c2C)CC1", "note": "(stereo not given)", "max dye-equivalent concentration": "inconclusive: 1.5 nM"}
{"smiles": "CCn1cc(C2=NCC(C)O2)c2ccccc21", "note": "(stereo not given)", "max dye-equivalent concentration": "inconclusive: 1.1 nM"}
{"smiles": "CCN=C1SC(CC(=O)Nc2ccccc2OCC)C(=O)N1CC", "note": "(stereo not given)", "max dye-equivalent concentration": "inconclusive: 1.5 nM"}
{"smiles": "COC(=O)C1=C(C)NC(=O)NC1c1cc(Cl)ccc1OC", "note": "(stereo not given)", "max dye-equivalent concentration": "inconclusive: 1.7 nM"}
{"smiles": "CCC1CCCCN1C(=O)C1CC(c2cc(Cl)c(OC)cc2OC)=NO1", "note": "(stereo not given)", "max dye-equivalent concentration": "inconclusive: 1.5 nM"}
{"smiles": "COC(=O)c1ccc2c(c1)NC(=O)C(N1CCCC1)S2", "note": "(stereo not given)", "max dye-equivalent concentration": "inactive"}
{"smiles": "O=C(Nc1c(Cl)cccc1Cl)C1CCC1", "max dye-equivalent concentration": "inconclusive: 1.5 nM"}
{"smiles": "CN(C)c1nc(Nc2ccccc2)nc(Oc2ccc(=O)[nH]n2)n1", "max dye-equivalent concentration": "inconclusive: 1.1 nM"}
{"smiles": "Cc1cccc(OCCC(=O)Nc2ccc(S(=O)(=O)N3CCCC3)cc2)c1", "max dye-equivalent concentration": "inconclusive: 1.4 nM"}
{"smiles": "CN(CC(=O)Nc1ccccc1Cl)C(=O)COC(=O)CNC(=O)c1ccc(Br)o1", "max dye-equivalent concentration": "inconclusive: 1.1 nM"}
{"smiles": "O=C(Nc1ccc(N2CCN(C(=O)c3ccco3)CC2)cc1)c1cccc(F)c1", "max dye-equivalent concentration": "inconclusive: 1.2 nM"}
{"smiles": "COc1cc(C(=O)N(CCc2ccccc2)C2CC3CCC(C2)N3C)cc(OC)c1OC", "note": "(stereo not given)", "max dye-equivalent concentration": "inconclusive: 1.1 nM"}
{"smiles": "Cc1noc(C)c1-c1ccc2ncnc(N(C)Cc3ccco3)c2c1", "max dye-equivalent concentration": "inactive"}
{"smiles": "Clc1ccc(OCCn2cnc3ccccc32)cc1", "max dye-equivalent concentration": "inconclusive: 1.3 nM"}
{"smiles": "CCOC(=O)c1ccc(CSc2nnc(-c3ccncc3)n2N)cc1", "max dye-equivalent concentration": "inconclusive: 1.7 nM"}
{"smiles": "CC1(C)CCC(NC(=O)[C@H](N)CCC(=O)O)CC1", "max dye-equivalent concentration": "inactive"}
{"smiles": "CCN(CC)C(=O)CSc1nc2ncc(Br)cc2[nH]1", "max dye-equivalent concentration": "inconclusive: 1.9 nM"}
{"smiles": "Cc1[nH]nc(N=CC2=C(O)CC(C)(C)CC2=O)c1-c1ccc(Cl)cc1", "max dye-equivalent concentration": "inconclusive: 1.3 nM"}
{"smiles": "O=C(NCCO)c1ccc2c(c1)S(=O)(=O)c1ccccc1C2=O", "max dye-equivalent concentration": "inconclusive: 1.3 nM"}
{"smiles": "Cc1ccc(S(=O)(=O)CCc2nnc(NC(=O)C3CCCO3)s2)cc1", "note": "(stereo not given)", "max dye-equivalent concentration": "inconclusive: 2.4 nM"}
{"smiles": "Cc1ccccc1Cc1c(C)nc2c(C(=O)NCc3ccco3)cnn2c1C", "max dye-equivalent concentration": "inconclusive: 1.2 nM"}
{"smiles": "CC(C)CO[C@H](c1ccc2c(c1)OCO2)[C@H](C)Br", "max dye-equivalent concentration": "inactive"}
{"smiles": "COC(=O)c1ccccc1NC(=O)CSc1nc2ccccc2c(=O)[nH]1", "max dye-equivalent concentration": "inconclusive: 1.8 nM"}
{"smiles": "C[C@@]12C[C@H](O)[C@@H]3[C@H](CCC4=CC(=O)CC[C@]43C)[C@H]1CC[C@@H]2c1csc(N)n1", "max dye-equivalent concentration": "inconclusive: 1.1 nM"}
{"smiles": "O=C(CN1CCCC1)NCC12CC3CC(CC(C3)C1)C2", "max dye-equivalent concentration": "inconclusive: 1.3 nM"}
{"smiles": "CC(C)(C)n1ncc2c(=O)n(CC(=O)Nc3ccccc3)cnc21", "max dye-equivalent concentration": "inconclusive: 1.1 nM"}
{"smiles": "Cc1cc(NC(=O)CCC(=O)N(CCc2ccccc2)C(C(=O)NC2CCCC2)c2ccco2)no1", "note": "(stereo not given)", "max dye-equivalent concentration": "inconclusive: 1.1 nM"}
{"smiles": "Cc1nc(N2CCC3(CC2)OCCO3)c2nnn(Cc3ccccc3F)c2n1", "max dye-equivalent concentration": "inconclusive: 2.3 nM"}
{"smiles": "CC[C@@H]1OC(=O)[C@H](C)[C@H](O[C@@H]2C[C@](C)(OC)[C@H](O)[C@H](C)O2)[C@H](C)[C@H](O[C@@H]2O[C@@H](C)C[C@@H](N(C)C)[C@@H]2O)[C@](C)(O)C[C@H](C)C(=O)[C@H](C)[C@H](O)[C@]1(C)O", "max dye-equivalent concentration": "inactive"}
{"smiles": "C=CCSc1nnc(-c2ccccc2NC(=O)CC)c(=O)[nH]1", "max dye-equivalent concentration": "inconclusive: 1.7 nM"}
{"smiles": "COc1ccc(C(C)=O)cc1CSc1nc2ccccc2o1", "max dye-equivalent concentration": "inconclusive: 1.9 nM"}
{"smiles": "CO[C@@]12C[C@@H](COC(=O)c3cncc(Br)c3)CN(C)[C@H]1Cc1cn(C)c3cccc2c13", "max dye-equivalent concentration": "inactive"}
{"smiles": "Cc1ccnc2nc(C(=O)NC3=NCCS3)nn12", "max dye-equivalent concentration": "inconclusive: 1.1 nM"}
{"smiles": "O=C(c1ccco1)N1CCC(c2nc(-c3ccc(F)cc3)no2)CC1", "max dye-equivalent concentration": "inconclusive: 1.3 nM"}
{"smiles": "CNC(=O)c1ccc(N(Cc2ccccc2C)S(C)(=O)=O)cc1", "max dye-equivalent concentration": "inconclusive: 1.7 nM"}
{"smiles": "c1ccc(Cn2nnc3c(N4CCN(Cc5ccc6c(c5)OCO6)CC4)ncnc32)cc1", "max dye-equivalent concentration": "inconclusive: 1.7 nM"}
{"smiles": "CCOC(=O)C1=C(C)NC2=C(C(=O)c3ccccc32)C1c1cccnc1", "note": "(stereo not given)", "max dye-equivalent concentration": "inconclusive: 1.1 nM"}
{"smiles": "O=C(c1ccco1)N(CC1CCCO1)c1nc(-c2ccccc2)cs1", "note": "(stereo not given)", "max dye-equivalent concentration": "inconclusive: 2.2 nM"}
{"smiles": "COC(=O)COc1cc(C)cc2oc(=O)c(CC(=O)OC)c(C)c12", "max dye-equivalent concentration": "inconclusive: 1.4 nM"}
{"smiles": "O=S(=O)(c1ccc(OCC(O)CN2CCN(c3ccc(F)cc3)CC2)cc1)N1CCOCC1", "note": "(stereo not given)", "max dye-equivalent concentration": "inconclusive: 1.3 nM"}
{"smiles": "COc1cc2cc(C(c3nnnn3Cc3ccc(F)cc3)N3CCCCCC3)c(=O)[nH]c2cc1OC", "note": "(stereo not given)", "max dye-equivalent concentration": "inconclusive: 1.1 nM"}
{"smiles": "CC1=C(C(=O)OCC2CCCO2)C(c2ccc(C)o2)C2=C(CC(c3ccc(N(C)C)cc3)CC2=O)N1", "note": "(stereo not given)", "max dye-equivalent concentration": "inconclusive: 1.9 nM"}
{"smiles": "O=C(NCCCN1CCOCC1)c1cccs1", "max dye-equivalent concentration": "inconclusive: 1.1 nM"}
{"smiles": "CN(C)CCCCN1CCc2c(n(C)c3ccccc23)C1=O", "max dye-equivalent concentration": "inactive"}
{"smiles": "COc1ccc(-c2cc3nc(C4CCN(C(=O)OC(C)(C)C)CC4)c(C(=O)O)cn3n2)cc1", "max dye-equivalent concentration": "inconclusive: 1.7 nM"}
{"smiles": "O=C(c1ccco1)N1CCC2(CCN(Cc3nccs3)CC2)CC1", "max dye-equivalent concentration": "inactive"}
{"smiles": "O=C(O)CCCc1nc2ccccc2s1", "max dye-equivalent concentration": "inconclusive: 1.5 nM"}
{"smiles": "O=C(O)C1C2C=CC3(CN(Cc4ccccn4)C(=O)C13)O2", "note": "(stereo not given)", "max dye-equivalent concentration": "inconclusive: 1.1 nM"}
{"smiles": "O=c1c(-c2ccc(F)cc2)nc2cnc(N3CCNCC3)nc2n1C1CC1", "max dye-equivalent concentration": "inactive"}
{"smiles": "CCOC(=O)c1cc2c(=O)n3ccccc3nc2n(Cc2ccccc2)c1=N", "max dye-equivalent concentration": "inactive"}
{"smiles": "Cc1cc(=O)n2nc(N3CCC(C(=O)NCCc4ccccc4)CC3)sc2n1", "max dye-equivalent concentration": "inconclusive: 1.1 nM"}
{"smiles": "COc1ccc(N2CCN(CC(=O)Nc3nc4c(s3)CC(C)CC4)CC2)cc1", "note": "(stereo not given)", "max dye-equivalent concentration": "inconclusive: 1.3 nM"}
{"smiles": "CCCc1nc2oc(C(=O)OCC)c(N)c2c2c1COC(C)(C)C2", "max dye-equivalent concentration": "inconclusive: 1.1 nM"}
{"smiles": "O=C1O[C@H](CN2CCOCC2)CN1/N=C\\c1ccc([N+](=O)[O-])o1", "max dye-equivalent concentration": "inactive"}
{"smiles": "Oc1ccccc1C1=NCCNC(C(F)(F)C(F)F)=C1", "max dye-equivalent concentration": "inconclusive: 1.6 nM"}
{"smiles": "CCCNS(=O)(=O)c1ccc(OCC(=O)NCc2ccco2)cc1", "max dye-equivalent concentration": "inconclusive: 1.1 nM"}
{"smiles": "CCC(C)[C@H](NC(=O)NCc1ccc(Cl)cc1)C(=O)OC", "note": "(stereo not given in full)", "max dye-equivalent concentration": "inconclusive: 1.1 nM"}
{"smiles": "COc1ccc(C(C(=O)NC(C)(C)C)N(Cc2ccco2)C(=O)CCC(=O)Nc2cc(C)on2)cc1", "note": "(stereo not given)", "max dye-equivalent concentration": "inconclusive: 1.1 nM"}
{"smiles": "CCOc1cc(S(=O)(=O)NC2CCCC2)ccc1Cl", "max dye-equivalent concentration": "inconclusive: 1.5 nM"}
{"smiles": "Cc1cnc(CNc2cc(-c3cccnc3)ncn2)cn1", "max dye-equivalent concentration": "inconclusive: 1.2 nM"}
{"smiles": "Cc1nc(CSc2nc3[nH]ncc3c(=O)n2-c2ccccc2)cs1", "max dye-equivalent concentration": "inconclusive: 1.9 nM"}
{"smiles": "Cc1cc(C(=O)CSc2nnc(Nc3ccccc3)s2)c(C)n1CC1CCCO1", "note": "(stereo not given)", "max dye-equivalent concentration": "inconclusive: 2.1 nM"}
{"smiles": "O=C(NC1CCCCCC1)c1nc2ncccn2n1", "max dye-equivalent concentration": "inconclusive: 1.4 nM"}
{"smiles": "Cc1cc(C)nc(N2C(=O)CC(Cc3ccccc3)C2=O)n1", "note": "(stereo not given)", "max dye-equivalent concentration": "inconclusive: 1.1 nM"}
{"smiles": "CCc1cc(=O)oc2cc3oc(C)c(C)c3cc12", "max dye-equivalent concentration": "inconclusive: 1.8 nM"}
{"smiles": "Nc1nc(SCc2ccccc2)ns1", "max dye-equivalent concentration": "inconclusive: 1.3 nM"}
{"smiles": "CCOC(=O)c1ccc(COC(=O)c2cc3ccccc3oc2=O)o1", "max dye-equivalent concentration": "inconclusive: 1.3 nM"}
{"smiles": "Nc1ccn([C@H]2CC[C@H](CO)O2)c(=O)n1", "max dye-equivalent concentration": "inactive"}
{"smiles": "O=C(CN1CCN(c2ncc(C(F)(F)F)cc2Cl)CC1)NC(=O)NCc1ccccc1", "max dye-equivalent concentration": "inconclusive: 3 nM"}
{"smiles": "Cc1nc(NCCCn2ccnc2)c2ccccc2n1", "max dye-equivalent concentration": "inactive"}
{"smiles": "COc1ccc(-c2nnn(CC(=O)Nc3sc4c(c3C#N)CCCC4)n2)cc1", "max dye-equivalent concentration": "inconclusive: 1.5 nM"}
{"smiles": "CN(C)CC(=O)N1c2ccccc2CCc2ccc(NC(=O)c3ccc(N)cc3)cc21", "max dye-equivalent concentration": "inconclusive: 2.1 nM"}
{"smiles": "Clc1ccc(-c2nn3c(C4COc5ccccc5O4)nnc3s2)cc1", "note": "(stereo not given)", "max dye-equivalent concentration": "inconclusive: 1.9 nM"}
{"smiles": "CN(C)CCCN1CCC2(CCC(C(C)(C)C)CC2)CC1", "max dye-equivalent concentration": "inactive"}
{"smiles": "OCCn1c(SC2CCCCC2)nc2ccccc21", "max dye-equivalent concentration": "inconclusive: 1.4 nM"}
{"smiles": "COCCn1nnnc1C(c1ccc(O)c(OC)c1)N1CCc2ccccc2C1", "note": "(stereo not given)", "max dye-equivalent concentration": "inconclusive: 1.3 nM"}
{"smiles": "CC(C)(C)c1c2c(c(C(C)(C)C)c3c1OCN(Cc1ccccc1)C3)OCN(Cc1ccccc1)C2", "max dye-equivalent concentration": "inactive"}
{"smiles": "O=C(c1ccco1)N1CCN(C(c2ccccc2)c2nnnn2Cc2cccs2)CC1", "note": "(stereo not given)", "max dye-equivalent concentration": "inconclusive: 2.1 nM"}
{"smiles": "CC1CCN(CCc2nc3cc(NC(=O)Nc4ccccc4)ccc3n2C)CC1", "max dye-equivalent concentration": "inconclusive: 1.3 nM"}
{"smiles": "COc1ccc(-c2ccc(-c3noc(-c4ccccc4OC)n3)c(OC)n2)cc1", "max dye-equivalent concentration": "inactive"}
{"smiles": "CCOC(=O)c1cc2c(ccn2C)n1CC(=O)N1CCN(c2ccccc2OC)CC1", "max dye-equivalent concentration": "inconclusive: 1.5 nM"}
{"smiles": "O=C(O)/C=C(/C(=O)O)[C@]12CCN3CC4=CCO[C@@H]5CC(=O)N[C@@H]1[C@H]5[C@H]4C[C@H]32", "max dye-equivalent concentration": "inactive"}
